No signal at the amounts used counts as a negative. At least one verdict rests on a figure or table, not on a statement of the authors.
Molecular target: RAD51 (UniProt Q06609)
Experiment: EMSA
Conditions: 2 mM ATP, 5 mM CaCl2, RAD51 up to at least 1000 nM, 10 nM DNA. RAD51: 20 mM Tris-HCl pH 8.0, 30 mM NaCl, 1 mM DTT, 5 mM CaCl2, 0.2% Tween 20, 37 C 15 min. BG4: 20 mM Tris-HCl pH 8.0, 30 mM KCl, 1 mM MgCl2, commercial protein, residues 1-339, folded or branched DNA

Chains of the proteins cited; added tags and fusions are not shown.
UniProt Q06609, whole entry: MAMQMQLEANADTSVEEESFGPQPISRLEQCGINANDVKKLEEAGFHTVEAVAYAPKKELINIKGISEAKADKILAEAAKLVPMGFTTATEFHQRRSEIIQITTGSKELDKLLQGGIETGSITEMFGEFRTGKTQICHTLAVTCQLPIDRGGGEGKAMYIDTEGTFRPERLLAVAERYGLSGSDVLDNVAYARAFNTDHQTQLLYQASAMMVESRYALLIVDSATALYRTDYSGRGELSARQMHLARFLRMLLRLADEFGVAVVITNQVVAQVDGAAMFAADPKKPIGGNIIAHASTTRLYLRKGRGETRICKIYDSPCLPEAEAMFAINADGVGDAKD

AGGGAGGGCGCTGGGAGGAGGG [c-KIT G4]
binding result: no binding
